These are yes or no findings as the source states them, for the method shown. Some binding calls cover weakened binding; strength is not graded here.
Molecular target: T1, N-terminal domain of ULP-2 (Gal4-DB::ULP-2 bait) (C. elegans) (UniProt Q23238)
T1 sequence: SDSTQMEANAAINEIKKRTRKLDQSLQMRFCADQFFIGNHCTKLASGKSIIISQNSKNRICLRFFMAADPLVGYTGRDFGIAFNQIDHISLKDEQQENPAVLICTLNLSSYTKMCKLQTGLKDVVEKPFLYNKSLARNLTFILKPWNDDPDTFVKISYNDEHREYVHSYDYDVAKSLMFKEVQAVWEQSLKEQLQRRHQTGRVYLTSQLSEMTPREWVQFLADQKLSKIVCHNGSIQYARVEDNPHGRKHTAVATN
Test: two-hybrid; directed test: SET-26 fragments in Gal4-AD vector pMB29 (Y8800) mated with Gal4-DB::ULP-2 (Y8930); SC plates lacking leucine, tryptophan and histidine or adenine; 2 mM 3-AT on plates lacking histidine

binding: binds
B1: N-terminal fragment of SET-26 (residues 1-575, exons 1-4) (domain or fragment, UniProt Q9U263 1-575)
chain: MADGEHTLPADEELFEQPPLQQQQPEIAEPIVMAQEPIQGVSEDPQASEATHEAPDNYPVDHQMENQEFYQEPQIPEPQQIPQIPVFQPAAYNPPNYVAPQQRANNFGEPAAAADSRPLTEEEQLAAERPTEDTVWIDSDDDTDVEEAILRANFWLPYSDHNYDPPDPADRIILPTEGPFPCIAGLDEDCNIVKQWMPEDAVGPGSPGTQYRRNQQTGGGLPSTSVAPQQQQLPVRHNIQNRPMVAAQPFSIGGNQVEYGGIGGMDSRMQQRGVVRDGPQYRVMNDFGNGLPMRGQLPPRNSPAANAINRVREQQQQMYHQAGARGSLQQRVPAPAAPTPGSYQHIVNAVPVGGANPMRRVPPQARPGMIGGAANNNRARPIHVTRPMDTQEFEHPVAPAAAAPPRRVVDVAPHRMTPEQRQELQQMNRQRAAPQFPAAAAQRSAEKIVIQQRPGASSSRAPRPSMAQEDLLRSPTRRLSERVPQEHQTPVLEPRRFQVKVTDTYSTPIPKASDQLPAQLTEEDPPEESAAAAAPEDVPDAAPEDPPKGILKPTPPHRMTQEEKNAHFARLTTDK
